Results published in article PMC7819943, “Rice protein-binding microarrays: a tool to detect cis-acting elements near promoter regions in rice”.
Some of the results follow.

molecular target: T1, OsSMF1 (Oryza sativa, UniProt Q6ZLB0 1-436); assay: protein-binding microarray (RPBM); PBS, 2% BSA, 51.3 ng/ul salmon testes DNA, 50 uM zinc acetate, 200 nM TF, 25 C, 1 h; high values mean tight binding; conditions: protein: recombinant; tags: N-terminal polyhistidine and DsRed monomer fusion (pET32a); chain copies: 2; label: CyDye5-dUTP incorporated in the synthesized complementary strand; 3' TTTTT single-stranded linker to array surface; dsDNA, one strand shown
T1 sequence: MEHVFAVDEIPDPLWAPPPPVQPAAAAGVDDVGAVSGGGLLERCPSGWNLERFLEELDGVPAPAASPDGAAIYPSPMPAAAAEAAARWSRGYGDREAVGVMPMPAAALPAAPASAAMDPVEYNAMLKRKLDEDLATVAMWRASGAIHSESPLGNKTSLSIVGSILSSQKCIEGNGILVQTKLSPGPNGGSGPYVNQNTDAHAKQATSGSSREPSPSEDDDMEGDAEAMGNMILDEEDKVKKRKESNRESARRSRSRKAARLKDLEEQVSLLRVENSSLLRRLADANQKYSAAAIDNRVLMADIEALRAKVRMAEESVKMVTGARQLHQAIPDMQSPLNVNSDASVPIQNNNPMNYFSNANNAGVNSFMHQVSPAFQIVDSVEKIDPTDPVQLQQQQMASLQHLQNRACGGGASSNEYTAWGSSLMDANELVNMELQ
Outline: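 Binding signal is defined as the fluorescence intensity of each feature in arbitrary units, read on an Axon 4000B scanner. Transcription factors with N-terminal polyhistidine and DsRed fusions came from E. coli BL21-CodonPlus and were purified on Ni–NTA. They were incubated at 200 nM for 1 h at 25 °C on a custom Agilent array that had been made double-stranded with Cy5-dUTP, with 50 µM zinc acetate present, and the array was washed.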

Q: For “CAAGTGAGCCCCACAAGTTGACTCAACAGTCAACAGGGTCCGGAGTCACCTAGTGCAG”, which binding signal is on record?
A: Its binding signal is 4430 fluorescence intensity (a.u.).

Q: How did the binding signal turn out when “TCCATGCTAATTCAGCCGCCACGTAGCATAAAACCGGGGTCGGAGTCACCTAGTGCAG” was run?
A: The binding signal was 13700 fluorescence intensity (a.u.).

Q: Which binding signal does the source give for “TCCATCCAGGGAAAGGGTAGGGGAAGGTGGCAATGAGGATCGGAGTCACCTAGTGCAG” here?
A: Its binding signal is 12200 fluorescence intensity (a.u.).

Q: Which binding signal does the source give for “AATACTCATAGTCATAGTCATGCATCCACGACTCTATCATCGGAGTCACCTAGTGCAG” here?
A: Its binding signal is 4740 fluorescence intensity (a.u.).

Q: With “GGGCCGGGCTGCACGTCATCTCTCACCTTACCTGCGATTTCGGAGTCACCTAGTGCAG” as the sequence, how does the binding signal read?
A: Its binding signal is 10000 fluorescence intensity (a.u.).

Q: Which binding signal does the source give for “TAATATGATATTTTAGAGCAACTTTCATACAGAGAGTTTTCGGAGTCACCTAGTGCAG” here?
A: Its binding signal is 3370 fluorescence intensity (a.u.).

Q: “CTACTACTACCACGCAGCGGGTGACACACACACACACAAACGGAGTCACCTAGTGCAG” was tested. Which binding signal did it give?
A: The binding signal was 5000 fluorescence intensity (a.u.).

Q: Which binding signal does the source give for “AGCAGCAAGCCCATGAAAGAAATGCAGCTTGGTAGGATAGCGGAGTCACCTAGTGCAG” here?
A: Its binding signal is 28500 fluorescence intensity (a.u.).

Q: Which binding signal does the source give for “AAAGCCGTCGTATTGTCATCCGCCGCTCGCTGACTCATTCCGGAGTCACCTAGTGCAG” here?
A: The binding signal was 13700 fluorescence intensity (a.u.).

Q: Which binding signal does the source give for “GTCTTCCCGTGTCATCGTCGCCGTCATACACGCCAGCCCGCGGAGTCACCTAGTGCAG” here?
A: Its binding signal is 8200 fluorescence intensity (a.u.).

Q: How did the binding signal turn out when “CGTCAGCCTGCAATCGCTTTCTGGGCCCAATAGTACGGGCCGGAGTCACCTAGTGCAG” was run?
A: The binding signal was 8490 fluorescence intensity (a.u.).

Q: For “GCGTGGCATCTGGCATGTGAGGTGGCTGGCCGGCTTGGTCCGGAGTCACCTAGTGCAG”, which binding signal is on record?
A: Its binding signal is 3960 fluorescence intensity (a.u.).

Q: “TGATGTTTATCAACAGTGTCTCATAAATTACGATATTATTCGGAGTCACCTAGTGCAG” was tested. Which binding signal did it give?
A: Its binding signal is 28800 fluorescence intensity (a.u.).

Q: With “GATTCATAGTCCTAGAATAAAATCTCATCTTAGATTGCTACGGAGTCACCTAGTGCAG” as the sequence, how does the binding signal read?
A: Its binding signal is 30500 fluorescence intensity (a.u.).

Q: For “CCCATCGGAGGCAGTTCAAAGGGCTGTGTCAGACTGTTTACGGAGTCACCTAGTGCAG”, which binding signal is on record?
A: Its binding signal is 3740 fluorescence intensity (a.u.).

Q: Which binding signal does the source give for “TCTGGCAAACCCGATGTGACGTCTCGTCCTTCATGGTTCGCGGAGTCACCTAGTGCAG” here?
A: Its binding signal is 3200 fluorescence intensity (a.u.).

Q: Which binding signal does the source give for “CAGGTGGTTGTGTGCATATAACAGATACCTTCGATGTGCACGGAGTCACCTAGTGCAG” here?
A: Its binding signal is 31300 fluorescence intensity (a.u.).

Q: “TCGCTCCGTGCTCGACTCGTGTCTTCCACCTCATTCTCGACGGAGTCACCTAGTGCAG” was tested. Which binding signal did it give?
A: Its binding signal is 5890 fluorescence intensity (a.u.).

Q: “CGGCCGCGTCGGTCGCCACGTCTCCATCTCCCTCCACACCCGGAGTCACCTAGTGCAG” was tested. Which binding signal did it give?
A: Its binding signal is 6940 fluorescence intensity (a.u.).

Q: With “AGTTAGTACCTCCTCCTTTGACGGACGCGTCGACCATTTCCGGAGTCACCTAGTGCAG” as the sequence, how does the binding signal read?
A: Its binding signal is 3760 fluorescence intensity (a.u.).

Q: For “CTGCATGTTGGTGACTTGTCCAAATCAACAATAGCTCCTACGGAGTCACCTAGTGCAG”, which binding signal is on record?
A: The binding signal was 20700 fluorescence intensity (a.u.).

Q: “TTTTGCGTGCGGGCGGTATAACTTGACCGCGGTCCACTTACGGAGTCACCTAGTGCAG” was tested. Which binding signal did it give?
A: The binding signal was 24600 fluorescence intensity (a.u.).

Q: How did the binding signal turn out when “TATTAAGTCTAATTAATCCATGATTAGCCTATGTGATGCTCGGAGTCACCTAGTGCAG” was run?
A: Its binding signal is 4030 fluorescence intensity (a.u.).

Q: For “AAAAGAACTACGAAAACAAATCGTATGATACAGTTCGTTTCGGAGTCACCTAGTGCAG”, which binding signal is on record?
A: Its binding signal is 3290 fluorescence intensity (a.u.).

Q: Which binding signal does the source give for “ATAGGGAGCTATAAACAGTTAAACACCAGCTTGTCGATTACGGAGTCACCTAGTGCAG” here?
A: Its binding signal is 3410 fluorescence intensity (a.u.).

Q: “AGATCTGCCACGAGTTGCCGTGTCCACGTTCCACTCTTCTCGGAGTCACCTAGTGCAG” was tested. Which binding signal did it give?
A: The binding signal was 3420 fluorescence intensity (a.u.).

Q: Which binding signal does the source give for “ATCCCATGCGTCTCCAATCGACGCCACGTGCACCTTCTCCCGGAGTCACCTAGTGCAG” here?
A: The binding signal was 12400 fluorescence intensity (a.u.).

Q: Which binding signal does the source give for “AACCAAATATTTTACCACGATGACTACTAGAGTATGGTGTCGGAGTCACCTAGTGCAG” here?
A: The binding signal was 3550 fluorescence intensity (a.u.).

Q: With “CATGTGCGCACACACACACACAGCTCACTCGCTCACACGACGGAGTCACCTAGTGCAG” as the sequence, how does the binding signal read?
A: The binding signal was 3760 fluorescence intensity (a.u.).

Q: For “TTGCTTCCTCCCTGTCATATGCACAGTAGTTAAACACAGACGGAGTCACCTAGTGCAG”, which binding signal is on record?
A: The binding signal was 4480 fluorescence intensity (a.u.).

Q: Which binding signal does the source give for “TCAACGAGCCGAGCTCGAGCGAGCTCGTCTGCCCAAGCTCCGGAGTCACCTAGTGCAG” here?
A: The binding signal was 19500 fluorescence intensity (a.u.).

Q: “GAGCGAACGGCCGTCTGCCACGTCATTTTCACCGCCCTCTCGGAGTCACCTAGTGCAG” was tested. Which binding signal did it give?
A: The binding signal was 28800 fluorescence intensity (a.u.).

Q: “CAGTGACGTGAGGGGACACGTGGCTCGGGCCGACCACTCCCGGAGTCACCTAGTGCAG” was tested. Which binding signal did it give?
A: Its binding signal is 14200 fluorescence intensity (a.u.).

Q: “CTGTTGTTTATCTCCTGGTGAGTCCTCCTGTCATGTTAGCCGGAGTCACCTAGTGCAG” was tested. Which binding signal did it give?
A: Its binding signal is 9740 fluorescence intensity (a.u.).

Q: With “CCCTCTCCTCTCCGCCACCACGCCACCGTGCTTCCCTCCCCGGAGTCACCTAGTGCAG” as the sequence, how does the binding signal read?
A: The binding signal was 3180 fluorescence intensity (a.u.).

Q: With “GGGATTGTTGATACACGTAAGACTGCTTTCTGTCTATCCCCGGAGTCACCTAGTGCAG” as the sequence, how does the binding signal read?
A: Its binding signal is 11700 fluorescence intensity (a.u.).

Q: Which binding signal does the source give for “TGCAAGCAGCAAGCGTGTCACTACGTTTACATGACATGCACGGAGTCACCTAGTGCAG” here?
A: Its binding signal is 47600 fluorescence intensity (a.u.).

Q: Which binding signal does the source give for “CTACATGTAAAGTCAGCAAGATTGCTGATTTACATGTGTTCGGAGTCACCTAGTGCAG” here?
A: The binding signal was 5360 fluorescence intensity (a.u.).

Q: “CTCTCTTCCTCGCCCTCGGCCACCCGGCGCCTCCTTCCCTCGGAGTCACCTAGTGCAG” was tested. Which binding signal did it give?
A: The binding signal was 3650 fluorescence intensity (a.u.).

Q: “AAAACTCGAGCTCACGCGCACACGCACGCGACGCGACGCGCGGAGTCACCTAGTGCAG” was tested. Which binding signal did it give?
A: Its binding signal is 3610 fluorescence intensity (a.u.).

Q: How did the binding signal turn out when “CTTCCGGTGATGGCCACGTCGCCTGGTGCAGGAGCTGGCACGGAGTCACCTAGTGCAG” was run?
A: The binding signal was 4140 fluorescence intensity (a.u.).

Q: “CTCCTCGTGACGTCGTCTCCTCCACTCCCTCCAGTGACCACGGAGTCACCTAGTGCAG” was tested. Which binding signal did it give?
A: The binding signal was 6380 fluorescence intensity (a.u.).
